Data published in publication PMC11376556.
No constants are given. Whether binding was seen depends on the method and setting. Binding seen in cells or lysates may run through a third protein. Some results given as binding are weak or reduced against the parent protein; the word gives no strength. For some of these results: Where a sequence is shown, tags or fusion partners need not be part of it. Each block holds one molecule with its values, some of them ahead of it.

Protein sequences, listed by entry. Tags and fused reporters are not part of them.
UniProt P15864: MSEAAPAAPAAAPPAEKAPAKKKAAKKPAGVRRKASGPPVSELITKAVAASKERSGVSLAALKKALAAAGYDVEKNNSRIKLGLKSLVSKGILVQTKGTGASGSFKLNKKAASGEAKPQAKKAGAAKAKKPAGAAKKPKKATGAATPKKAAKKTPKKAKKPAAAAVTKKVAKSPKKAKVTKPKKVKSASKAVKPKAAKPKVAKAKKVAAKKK
UniProt Q61221: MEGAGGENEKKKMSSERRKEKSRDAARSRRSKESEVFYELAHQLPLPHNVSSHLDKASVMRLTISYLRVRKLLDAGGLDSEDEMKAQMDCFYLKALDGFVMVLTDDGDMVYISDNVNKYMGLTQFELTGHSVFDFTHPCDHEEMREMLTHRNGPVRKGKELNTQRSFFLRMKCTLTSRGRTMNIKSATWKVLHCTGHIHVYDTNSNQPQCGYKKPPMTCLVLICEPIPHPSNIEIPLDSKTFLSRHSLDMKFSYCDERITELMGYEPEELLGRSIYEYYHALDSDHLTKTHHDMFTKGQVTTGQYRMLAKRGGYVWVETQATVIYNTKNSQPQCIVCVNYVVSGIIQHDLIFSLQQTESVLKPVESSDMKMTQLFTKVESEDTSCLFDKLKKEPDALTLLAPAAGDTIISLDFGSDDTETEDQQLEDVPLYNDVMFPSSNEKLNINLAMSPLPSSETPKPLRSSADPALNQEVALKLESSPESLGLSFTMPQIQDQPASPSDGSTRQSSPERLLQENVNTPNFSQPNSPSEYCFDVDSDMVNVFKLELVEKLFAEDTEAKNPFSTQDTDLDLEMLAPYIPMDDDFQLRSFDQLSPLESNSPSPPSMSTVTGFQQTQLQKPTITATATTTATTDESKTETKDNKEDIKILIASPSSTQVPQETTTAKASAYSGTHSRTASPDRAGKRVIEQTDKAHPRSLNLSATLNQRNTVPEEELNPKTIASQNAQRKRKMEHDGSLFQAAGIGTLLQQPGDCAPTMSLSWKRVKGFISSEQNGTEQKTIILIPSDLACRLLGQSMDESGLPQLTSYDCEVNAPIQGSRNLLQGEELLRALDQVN
UniProt P53762: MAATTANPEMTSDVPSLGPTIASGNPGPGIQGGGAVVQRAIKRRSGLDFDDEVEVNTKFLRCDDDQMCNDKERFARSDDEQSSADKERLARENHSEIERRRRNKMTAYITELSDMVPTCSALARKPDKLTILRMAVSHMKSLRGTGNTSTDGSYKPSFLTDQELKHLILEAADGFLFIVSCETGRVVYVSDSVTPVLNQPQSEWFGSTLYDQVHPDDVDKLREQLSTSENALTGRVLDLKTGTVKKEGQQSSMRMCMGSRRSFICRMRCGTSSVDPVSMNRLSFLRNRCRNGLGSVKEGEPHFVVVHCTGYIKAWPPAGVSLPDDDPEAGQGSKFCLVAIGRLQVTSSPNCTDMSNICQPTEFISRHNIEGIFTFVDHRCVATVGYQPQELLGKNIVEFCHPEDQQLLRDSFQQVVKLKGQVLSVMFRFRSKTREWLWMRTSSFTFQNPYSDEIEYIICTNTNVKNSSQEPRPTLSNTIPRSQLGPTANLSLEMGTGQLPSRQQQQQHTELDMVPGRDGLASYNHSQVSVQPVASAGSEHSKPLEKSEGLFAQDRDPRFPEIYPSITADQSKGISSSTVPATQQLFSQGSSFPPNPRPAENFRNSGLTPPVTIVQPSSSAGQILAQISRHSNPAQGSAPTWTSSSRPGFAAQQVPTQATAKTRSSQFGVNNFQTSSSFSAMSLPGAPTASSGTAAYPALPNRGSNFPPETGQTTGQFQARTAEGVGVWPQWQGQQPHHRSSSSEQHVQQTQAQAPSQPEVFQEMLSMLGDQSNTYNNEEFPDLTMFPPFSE
UniProt P11103: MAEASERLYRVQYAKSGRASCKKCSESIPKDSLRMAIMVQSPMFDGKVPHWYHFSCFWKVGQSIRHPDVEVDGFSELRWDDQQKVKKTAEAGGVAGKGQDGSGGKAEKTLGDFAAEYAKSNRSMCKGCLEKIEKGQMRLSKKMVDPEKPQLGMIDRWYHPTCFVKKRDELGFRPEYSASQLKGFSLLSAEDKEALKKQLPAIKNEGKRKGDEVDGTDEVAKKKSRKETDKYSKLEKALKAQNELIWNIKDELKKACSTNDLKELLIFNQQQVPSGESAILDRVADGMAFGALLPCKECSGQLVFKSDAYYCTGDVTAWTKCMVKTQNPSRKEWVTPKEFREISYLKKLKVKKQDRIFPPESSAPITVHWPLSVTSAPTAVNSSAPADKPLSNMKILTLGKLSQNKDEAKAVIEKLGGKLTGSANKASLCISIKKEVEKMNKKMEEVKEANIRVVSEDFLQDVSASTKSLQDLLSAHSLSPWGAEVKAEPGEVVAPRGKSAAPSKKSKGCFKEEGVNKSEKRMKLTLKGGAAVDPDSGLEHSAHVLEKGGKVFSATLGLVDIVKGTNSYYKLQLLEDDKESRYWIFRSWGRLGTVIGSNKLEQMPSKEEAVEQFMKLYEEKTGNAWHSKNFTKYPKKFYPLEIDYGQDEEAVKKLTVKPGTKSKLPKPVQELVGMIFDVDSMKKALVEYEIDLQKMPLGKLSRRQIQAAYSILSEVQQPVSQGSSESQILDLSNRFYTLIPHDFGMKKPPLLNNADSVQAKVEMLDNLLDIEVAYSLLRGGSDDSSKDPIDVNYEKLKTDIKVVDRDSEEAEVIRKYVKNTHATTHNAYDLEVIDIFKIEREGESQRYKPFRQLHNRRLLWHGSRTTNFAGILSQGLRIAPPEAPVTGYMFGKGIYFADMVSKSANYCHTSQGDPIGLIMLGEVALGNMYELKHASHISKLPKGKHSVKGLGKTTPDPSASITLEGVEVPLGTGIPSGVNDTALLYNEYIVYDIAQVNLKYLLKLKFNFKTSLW

What was measured:
[1] = molecular target: GFP-tagged histone H1.2 (mouse HIST1H1C cDNA in pEGFP-N1) (mouse) (UniProt P15864); experiment: co-IP; HEK293T cells transfected with pEGFP-N1-H1.2 (pEGFP-N1 as control); IP lysis solution 50 mM Tris-HCl, 150 mM NaCl, 1% Triton-100, 1 mM EDTA, pH 7.5; anti-GFP beads 3 h at 4°C; washed with PBST; western blot
[2] = molecular target: MYC-HIF-1α (mouse cDNA in pCSII-MT) (mouse) (UniProt Q61221); experiment: co-IP; MYC-HIF-1α, FLAG-HIF-1β with or without GFP-H1.2 in HEK293T cells; also with Acriflavine (ACF) or TAT-cyclo-CLLFVY; H1.2 enhanced the co-precipitate and reduced the inhibition by ACF and TAT

binding [1]: no binding
binding [2]: binds
Molecule: FLAG-HIF-1β (from UniProt P53762 1-791)

binding [1]: binds
Molecule: PARP1 (mouse cDNA in PRK-flag) (from UniProt P11103 1-1013) (enzyme)

binding [1]: binds
B1: RBM39 (mouse cDNA in PRK-flag) (protein, UniProt Q8VH51 1-530)
chain: MADDIDIEAMLEAPYKKDENKLNSANGHEERSKKRKKSKSRSRSHERKRSKSKERKRSRDRERKKSKSRERKRSRSKERRRSRSRSRDRRFRGRYRSPYSGPKFNSAIRGKIGLPHSIKLSRRRSRSKSPFRKDKSPVREPIDNLTPEERDARTVFCMQLAARIRPRDLEEFFSTVGKVRDVRMISDRNSRRSKGIAYVEFVDVSSVPLAIGLTGQRVLGVPIIVQASQAEKNRAAAMANNLQKGSAGPMRLYVGSLHFNITEDMLRGIFEPFGRIESIQLMMDSETGRSKGYGFITFSDSECAKKALEQLNGFELAGRPMKVGHVTERTDASSASSFLDSDELERTGIDLGTTGRLQLMARLAEGTGLQIPPAAQQALQMSGSLAFGAVAEFSFVIDLQTRLSQQTEASALAAAASVQPLATQCFQLSNMFNPQTEEEVGWDTEIKDDVIEECNKHGGVIHIYVDKNSAQGNVYVKCPSIAAAIAAVNALHGRWFAGKMITAAYVPLPTYHNLFPDSMTATQLLVPSRR
